Measurements published in US20060241178A1, “Compositions and methods for treating lung cancer” (priority 2002, published 2006).
Some entries share one result that the patent states for a list of compounds. At least one compound was matched to its structure with a doubt left.

Tested on: B(a)P-induced lung adenoma
Experiment: Tumor bioassay: B(a)P-induced lung tumorigenesis, ITC-NAC conjugates in diet during post-initiation phase
Conditions: at termination
Description: The ITC conjugates were incorporated (15 μmol/g diet) into AIN-76A diets (5% corn oil) by mixing with dextrose prior to diet preparation. The conjugates, 9.36 g BITC-NAC (15 mmol) or 9.79 g PEITC-NAC (15 mmol), were dissolved in 50 ml ethyl acetate, and then mixed with 200 g dextrose to ensure even coating of dextrose particles. After mixing with dextrose, the solvent was removed using a rotary evaporator and further dried using a vacuum pump (2-3 h). Diets were prepared in 1-2 kg batches, and were stored at 4° C. in a container purged with nitrogen. […] Stability was determined by extraction of 0.5 g portions of the diet with 2.5 ml methanol (2×). […] A 10 μl sample was then analyzed on HPLC (Jiao, et al., Chem. Res. Toxicol., 9: 932-938, 1996).
Tumor Bioassay: Female strain A mice (Jackson Laboratories, Bar Harbor, Me.) of four weeks of age were housed under quarantine in polycarbonate cages (5 mice/cage) and provided modified AIN 76A diet (5% corn oil) and acidified drinking water ad libitum. […] At 84 days after B(a)P dosing, four mice per group were killed (CO2, cervical dislocation) to harvest lung tissues for molecular and immunohistochemical studies and to quantify lung adenomas, if present. […] The number of lung tumors was recorded; lobes of lungs were placed in 10% phosphate buffered formalin for histological and immunohistochemical analysis. […]

CC(=O)N[C@@H](CSC(=S)NCCc1ccccc1)C(=O)O [PEITC-NAC, N-acetylcysteine Conjugate of phenethyl isothiocyanate]
average body weight lower than Groups 1 and 4: 10 to 12%
